Experimental data reported in patent US20240182460A1, “ALLOSTERIC CHROMENONE INHIBITORS OF PHOSPHOINOSITIDE 3-KINASE (PI3K) FOR THE TREATMENT OF DISEASE” (PETRA PHARMA CORPORATION, priority 2022, published 2024).
Some entries share one result that the patent states for a list of compounds.

By UniProt entry, the sequences of proteins in these tests, tags left out.
UniProt P42336, whole entry H1047R: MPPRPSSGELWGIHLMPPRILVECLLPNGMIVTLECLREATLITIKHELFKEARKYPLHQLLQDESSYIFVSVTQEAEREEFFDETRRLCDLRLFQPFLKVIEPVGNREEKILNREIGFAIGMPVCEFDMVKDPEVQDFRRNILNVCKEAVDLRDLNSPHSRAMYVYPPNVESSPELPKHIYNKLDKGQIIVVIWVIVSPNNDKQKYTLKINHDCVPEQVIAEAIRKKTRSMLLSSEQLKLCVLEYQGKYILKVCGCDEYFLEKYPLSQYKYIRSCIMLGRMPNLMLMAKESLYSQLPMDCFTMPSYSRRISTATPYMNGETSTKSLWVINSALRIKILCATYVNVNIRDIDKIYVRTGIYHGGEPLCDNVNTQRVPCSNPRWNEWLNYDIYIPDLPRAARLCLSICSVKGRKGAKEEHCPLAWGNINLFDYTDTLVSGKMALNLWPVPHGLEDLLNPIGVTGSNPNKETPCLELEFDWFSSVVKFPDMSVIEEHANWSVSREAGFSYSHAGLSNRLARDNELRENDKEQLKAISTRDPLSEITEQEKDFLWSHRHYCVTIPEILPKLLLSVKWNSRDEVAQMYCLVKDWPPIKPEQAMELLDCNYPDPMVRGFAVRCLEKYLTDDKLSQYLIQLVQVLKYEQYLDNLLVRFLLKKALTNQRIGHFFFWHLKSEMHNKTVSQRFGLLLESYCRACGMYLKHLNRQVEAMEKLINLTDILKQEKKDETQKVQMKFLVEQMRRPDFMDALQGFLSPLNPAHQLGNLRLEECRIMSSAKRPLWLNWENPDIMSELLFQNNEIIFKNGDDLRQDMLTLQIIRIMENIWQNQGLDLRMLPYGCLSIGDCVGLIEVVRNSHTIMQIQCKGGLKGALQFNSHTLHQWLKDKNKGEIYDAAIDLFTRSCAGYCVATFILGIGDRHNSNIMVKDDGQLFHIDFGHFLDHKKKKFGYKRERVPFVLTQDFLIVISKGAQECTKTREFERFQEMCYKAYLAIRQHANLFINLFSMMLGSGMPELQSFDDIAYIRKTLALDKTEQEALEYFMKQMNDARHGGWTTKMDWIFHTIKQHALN

Columns and labels:
PI3Kα H1047R = molecular target: T1, PI3Kα H1047R (Homo sapiens, UniProt P42336, H1047R); assay: PI3Kα H1047R mutant in vitro cell based assay, MDA-MB-453 cells (AlphaLisa SureFire); conditions: IC50 in SKBR3 divided by IC50 in MDA-MB-453
T1 construct: The MDA-MB-453 (ATCC-HTB-131) cell line (PI3Kα H1047R); host or cells: MDA-MB-453
How it was run: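 MDA-MB-453 cells (endogenous PI3Kα H1047R) were treated for 3 h in serum-free MEM containing 1 μg/mL insulin, with 10-point 1:3 dilutions in 0.3% DMSO. Lysates were read by AlphaLisa SureFire. IC50 came from a 4-parameter logistic fit of duplicate % inhibition, normalized to DMSO (max) and 1 μM GDC-0032 (min).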

[1] = Metabolic stability and intrinsic clearance in human hepatocytes (HEPS); type: in vitro ADME; conditions: human hepatocytes 0.5×10^6 cells/mL, 1 μM compound
CYP3A4 = CYP3A4 induction in primary human hepatocytes (mRNA level and enzyme activity); type: in vitro ADME; conditions: compound at 1 μM, 72 hours of treatment

| fold-selectivity for PI3K-Alpha kinase H1047R mutant versus wild-type (PI3Kα H1047R) | intrinsic clearance in human HEPS [1] | CYP3A4 mRNA fold induction level (CYP3A4) | Structure (SMILES) |
| --- | --- | --- | --- |
| greater than 20 × | less than 50 μL/min/1×10^6 cells | less than 3.0 × | Cc1cc([C@@H](C)Oc2ccc(Cl)nc2-c2noc(=O)[nH]2)c2oc(-c3cnc4c(c3)OCCO4)c(C)c(=O)c2c1 [Example 47A, 3-[6-Chloro-3-[(1R)-1-[2-(2,3-dihydro-[1,4]dioxino[2,3-b]pyridin-7-yl)-3,6-dimethyl-4-oxo-chromen-8-yl]ethoxy]-2-pyridyl]-4H-1,2,4-oxadiazol-5-one] |
| greater than 20 × | less than 50 μL/min/1×10^6 cells | less than 3.0 × | Cc1cc([C@@H](C)Oc2ccc(Cl)nc2C(N)=O)c2oc(-c3cnc4nn(C)cc4c3)c(C)c(=O)c2c1 [Example 137A, 6-Chloro-3-[(1R)-1-[3,6-dimethyl-2-(2-methylpyrazolo[3,4-b]pyridin-5-yl)-4-oxo-chromen-8-yl]ethoxy]pyridine-2-carboxamide] |

Second part, the compound before the results:

| Structure (SMILES) | fold-selectivity for PI3K-Alpha kinase H1047R mutant versus wild-type (PI3Kα H1047R) | intrinsic clearance in human HEPS [1] | CYP3A4 mRNA fold induction level (CYP3A4) |
| --- | --- | --- | --- |
| Cc1cc([C@@H](C)Oc2ccc(Cl)nc2C(N)=O)c2oc(-c3ccc4c(c3)CCNC4=O)c(C)c(=O)c2c1 [Example 116A, 6-Chloro-3-[(1R)-1-[3,6-dimethyl-4-oxo-2-(1-oxo-3,4-dihydro-2H-isoquinolin-6-yl)chromen-8-yl]ethoxy]pyridine-2-carboxamide] | greater than 20 × | less than 50 μL/min/1×10^6 cells | less than 3.0 × |
| Cc1cc([C@@H](C)Oc2ccc(Cl)nc2C(N)=O)c2oc(-c3cnn4c3OCCC4)c(C)c(=O)c2c1 [Example 108A, 6-Chloro-3-[(1R)-1-[2-(6,7-dihydro-5H-pyrazolo[5,1-b][1,3]oxazin-3-yl)-3,6-dimethyl-4-oxo-chromen-8-yl]ethoxy]pyridine-2-carboxamide] | greater than 20 × | less than 50 μL/min/1×10^6 cells | less than 3.0 × |
| Cc1cc([C@@H](C)Oc2ccc(Cl)nc2S(C)(=N)=O)c2oc(-c3cnn(C)c3)c(C)c(=O)c2c1 (stereo partly drawn) [Example 147A, 8-[(1R)-1-[[6-Chloro-2-(methylsulfonimidoyl)-3-pyridyl]oxy]ethyl]-3,6-dimethyl-2-(1-methylpyrazol-4-yl)chromen-4-one] | greater than 20 × | less than 50 μL/min/1×10^6 cells | less than 3.0 × |
